# Results are given in words; binding and its absence hold for the method and conditions named. In cells and extracts the contact can be indirect. Some entries that bind do so weakly or less than the wild type.
# B1: FRIP8^P955A:L1063A (domain or fragment, UniProt P40818 645-1118)
# chain: GRIVPGLPSGWAKFLDPITGTFRYYHSPTNTVHMYPPEMAPSSAPPSTPPTHKAKPQIPAERDREPSKLKRSYSSPDITQAIQEEEKRKPTVTPTVNRENKPTCYPKAEISRLSASQIRNLNPVFGGSGPALTGLRNLGNTCYMNSILQCLCNAPHLADYFNRNCYQDDINRSNLLGHKGEVAEEFGIIMKALWTGQYRYISPKDFKITIGKINDQFAGYSQQDSQELLLFLMDGLHEDLNKADNRKRYKEENNDHLDDFKAAEHAWQKHKQLNESIIVALFQGQFKSTVQCLTCHKKSRTFEAFMYLSLALASTSKCTLQDCLRLFSKEEKLTDNNRFYCSHCRARRDSLKKIEIWKLPPVLLVHLKRFSYDGRWKQKLQTSVDFPLENLDLSQYVIGPKNNLKKYNLFSVSNHYGGADGGHYTAYCKNAARQRWFKFDDHEVSDISVSSVKSSAAYILFYTSLGPRVTDVAT
# Biological target: FRIP8^P955A:L1063A (human) (UniProt P40818)
# Test: FRET or BRET; single-molecule FRET probes in cell lysates: EYFP on the WW-like domain and ECFP inside the USP domain of ONE chain; excitation 433 nm, emission 460-570 nm; trypsinised lysate as negative control; FRET ratio EYFP/ECFP; the paper speculates that the interaction is intramolecular; 100 μM R18 reduced the FRET signal of FRIP8
binder,measurement,value
B1,binding,binds

# Source: paper PMC8576004
